Experimental data reported in the supplement of paper PMC10849652.
This is one part of the list.

Protein sequences, listed by entry. Tags and fused reporters are not part of them. Lines headed by an entry give the natural chain unless they say otherwise; changes in a name come on top.
UniProt Q9BXW9: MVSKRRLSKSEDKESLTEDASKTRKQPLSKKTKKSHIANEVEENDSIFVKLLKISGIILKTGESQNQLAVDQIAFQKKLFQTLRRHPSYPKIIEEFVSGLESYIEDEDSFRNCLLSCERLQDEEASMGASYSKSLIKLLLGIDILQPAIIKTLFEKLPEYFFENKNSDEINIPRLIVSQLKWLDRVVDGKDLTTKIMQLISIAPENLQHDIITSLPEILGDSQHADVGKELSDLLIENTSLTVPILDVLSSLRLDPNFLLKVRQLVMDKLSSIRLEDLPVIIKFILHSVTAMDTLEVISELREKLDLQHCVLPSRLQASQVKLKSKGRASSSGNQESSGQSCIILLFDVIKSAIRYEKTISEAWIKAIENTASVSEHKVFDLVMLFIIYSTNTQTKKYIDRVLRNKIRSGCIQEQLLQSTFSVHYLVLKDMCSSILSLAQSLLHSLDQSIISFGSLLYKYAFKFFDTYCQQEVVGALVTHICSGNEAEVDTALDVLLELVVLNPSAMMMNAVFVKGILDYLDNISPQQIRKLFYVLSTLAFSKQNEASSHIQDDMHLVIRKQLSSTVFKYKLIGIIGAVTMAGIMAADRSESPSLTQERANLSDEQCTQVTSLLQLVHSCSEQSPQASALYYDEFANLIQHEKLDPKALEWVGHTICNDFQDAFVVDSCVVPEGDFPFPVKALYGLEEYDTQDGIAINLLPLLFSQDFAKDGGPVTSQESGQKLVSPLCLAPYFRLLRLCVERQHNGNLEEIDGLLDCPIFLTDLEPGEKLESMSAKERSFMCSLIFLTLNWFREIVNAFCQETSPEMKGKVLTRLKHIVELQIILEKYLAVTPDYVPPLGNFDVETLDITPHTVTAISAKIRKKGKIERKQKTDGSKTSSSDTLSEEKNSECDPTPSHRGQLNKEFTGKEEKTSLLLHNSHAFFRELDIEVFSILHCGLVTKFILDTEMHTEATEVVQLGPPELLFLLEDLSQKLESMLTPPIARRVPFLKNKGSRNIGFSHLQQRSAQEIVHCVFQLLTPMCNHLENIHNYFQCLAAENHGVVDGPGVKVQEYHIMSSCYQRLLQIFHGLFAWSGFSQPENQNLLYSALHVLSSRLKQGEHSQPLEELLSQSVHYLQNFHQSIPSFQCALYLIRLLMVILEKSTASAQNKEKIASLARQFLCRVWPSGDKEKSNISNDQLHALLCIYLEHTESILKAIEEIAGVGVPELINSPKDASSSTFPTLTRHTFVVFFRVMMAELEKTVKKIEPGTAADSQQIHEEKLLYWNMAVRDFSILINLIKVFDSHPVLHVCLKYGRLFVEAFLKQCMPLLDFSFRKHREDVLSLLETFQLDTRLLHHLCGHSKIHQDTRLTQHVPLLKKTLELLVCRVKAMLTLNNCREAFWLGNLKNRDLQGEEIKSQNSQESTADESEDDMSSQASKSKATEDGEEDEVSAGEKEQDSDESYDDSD
UniProt Q9NYF3: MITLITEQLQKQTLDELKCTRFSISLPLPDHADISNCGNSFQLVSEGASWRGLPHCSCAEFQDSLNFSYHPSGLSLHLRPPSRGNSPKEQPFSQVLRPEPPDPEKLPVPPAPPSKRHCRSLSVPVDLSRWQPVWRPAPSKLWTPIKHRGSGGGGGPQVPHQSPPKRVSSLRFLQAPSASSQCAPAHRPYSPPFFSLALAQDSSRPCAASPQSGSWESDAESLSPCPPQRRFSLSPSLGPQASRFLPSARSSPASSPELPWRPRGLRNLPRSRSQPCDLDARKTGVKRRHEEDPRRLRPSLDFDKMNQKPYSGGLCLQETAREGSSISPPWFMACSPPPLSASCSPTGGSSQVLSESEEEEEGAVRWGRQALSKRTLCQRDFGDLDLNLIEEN
UniProt Q86UY5: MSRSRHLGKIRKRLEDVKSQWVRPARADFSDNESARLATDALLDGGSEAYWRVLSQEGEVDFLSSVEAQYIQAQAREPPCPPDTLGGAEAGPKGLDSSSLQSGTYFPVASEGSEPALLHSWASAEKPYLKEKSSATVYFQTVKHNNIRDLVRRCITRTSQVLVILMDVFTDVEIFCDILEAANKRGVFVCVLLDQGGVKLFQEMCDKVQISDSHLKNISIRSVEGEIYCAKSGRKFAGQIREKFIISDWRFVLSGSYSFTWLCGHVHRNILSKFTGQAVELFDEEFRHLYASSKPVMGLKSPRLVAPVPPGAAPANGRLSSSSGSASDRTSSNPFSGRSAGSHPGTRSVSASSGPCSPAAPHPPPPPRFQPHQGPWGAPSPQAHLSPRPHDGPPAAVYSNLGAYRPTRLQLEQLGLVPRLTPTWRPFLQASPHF
UniProt Q96KR6: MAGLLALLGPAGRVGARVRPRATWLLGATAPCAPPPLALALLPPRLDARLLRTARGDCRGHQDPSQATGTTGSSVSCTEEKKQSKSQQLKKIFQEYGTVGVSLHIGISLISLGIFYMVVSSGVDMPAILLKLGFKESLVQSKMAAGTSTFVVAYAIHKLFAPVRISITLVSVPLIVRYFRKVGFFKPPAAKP
UniProt Q14254: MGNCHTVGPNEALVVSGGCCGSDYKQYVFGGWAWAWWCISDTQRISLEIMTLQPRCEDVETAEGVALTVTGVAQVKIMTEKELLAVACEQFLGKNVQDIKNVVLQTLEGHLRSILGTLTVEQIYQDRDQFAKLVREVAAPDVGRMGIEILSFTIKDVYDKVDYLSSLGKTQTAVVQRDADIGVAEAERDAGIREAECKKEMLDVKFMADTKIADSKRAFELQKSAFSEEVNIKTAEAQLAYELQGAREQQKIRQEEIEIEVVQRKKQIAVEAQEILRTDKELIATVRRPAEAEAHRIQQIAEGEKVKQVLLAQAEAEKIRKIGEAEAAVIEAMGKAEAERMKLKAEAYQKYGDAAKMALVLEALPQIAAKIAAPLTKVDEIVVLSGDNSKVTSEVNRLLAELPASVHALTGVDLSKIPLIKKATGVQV
UniProt P62942, whole entry, looked up: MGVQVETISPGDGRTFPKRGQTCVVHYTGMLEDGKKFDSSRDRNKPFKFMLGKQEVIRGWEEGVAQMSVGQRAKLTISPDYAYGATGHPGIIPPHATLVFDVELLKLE
UniProt Q9Y421: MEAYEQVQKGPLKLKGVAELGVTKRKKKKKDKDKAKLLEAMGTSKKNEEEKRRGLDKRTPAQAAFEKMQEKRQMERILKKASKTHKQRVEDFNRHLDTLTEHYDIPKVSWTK
UniProt Q9UK73, whole entry, looked up: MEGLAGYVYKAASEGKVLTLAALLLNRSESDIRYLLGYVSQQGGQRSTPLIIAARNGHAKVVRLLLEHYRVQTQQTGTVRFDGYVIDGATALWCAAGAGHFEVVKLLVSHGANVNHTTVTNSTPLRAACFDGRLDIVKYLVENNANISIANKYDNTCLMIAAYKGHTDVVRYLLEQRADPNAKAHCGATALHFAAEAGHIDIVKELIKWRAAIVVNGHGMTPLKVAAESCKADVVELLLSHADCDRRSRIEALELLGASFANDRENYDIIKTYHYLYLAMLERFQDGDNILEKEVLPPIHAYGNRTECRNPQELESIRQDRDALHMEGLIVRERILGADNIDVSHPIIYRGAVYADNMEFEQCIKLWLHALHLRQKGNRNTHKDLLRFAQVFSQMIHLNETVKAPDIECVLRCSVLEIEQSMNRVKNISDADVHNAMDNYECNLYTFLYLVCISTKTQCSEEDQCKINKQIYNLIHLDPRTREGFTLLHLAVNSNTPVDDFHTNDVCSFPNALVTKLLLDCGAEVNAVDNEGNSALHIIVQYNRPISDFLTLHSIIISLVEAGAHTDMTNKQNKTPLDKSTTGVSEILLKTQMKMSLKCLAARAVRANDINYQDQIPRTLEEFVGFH
UniProt A2RU67: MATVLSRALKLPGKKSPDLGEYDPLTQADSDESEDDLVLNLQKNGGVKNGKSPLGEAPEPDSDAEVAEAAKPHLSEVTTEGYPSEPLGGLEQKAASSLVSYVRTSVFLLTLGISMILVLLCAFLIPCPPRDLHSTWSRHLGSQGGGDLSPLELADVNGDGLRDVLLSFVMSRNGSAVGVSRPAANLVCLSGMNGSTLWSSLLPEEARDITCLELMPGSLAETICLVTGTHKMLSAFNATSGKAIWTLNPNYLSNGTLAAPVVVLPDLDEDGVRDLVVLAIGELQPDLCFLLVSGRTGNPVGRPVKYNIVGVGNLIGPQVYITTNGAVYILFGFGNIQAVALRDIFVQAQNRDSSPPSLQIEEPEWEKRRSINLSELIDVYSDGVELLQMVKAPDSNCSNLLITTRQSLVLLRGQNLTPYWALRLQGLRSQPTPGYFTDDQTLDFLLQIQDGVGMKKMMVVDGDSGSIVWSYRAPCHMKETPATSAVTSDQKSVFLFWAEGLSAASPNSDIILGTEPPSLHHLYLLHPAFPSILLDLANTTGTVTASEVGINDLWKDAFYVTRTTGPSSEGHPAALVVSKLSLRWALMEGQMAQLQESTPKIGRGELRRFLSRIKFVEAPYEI
UniProt Q14320: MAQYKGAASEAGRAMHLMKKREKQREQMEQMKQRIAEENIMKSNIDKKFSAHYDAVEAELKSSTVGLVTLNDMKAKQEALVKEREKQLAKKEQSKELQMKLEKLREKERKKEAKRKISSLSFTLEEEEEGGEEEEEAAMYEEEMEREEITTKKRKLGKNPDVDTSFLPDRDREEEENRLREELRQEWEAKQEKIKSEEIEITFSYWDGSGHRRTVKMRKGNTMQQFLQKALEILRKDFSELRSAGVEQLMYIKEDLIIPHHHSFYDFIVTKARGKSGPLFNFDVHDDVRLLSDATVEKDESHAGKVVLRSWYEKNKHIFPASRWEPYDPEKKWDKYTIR
UniProt Q92520: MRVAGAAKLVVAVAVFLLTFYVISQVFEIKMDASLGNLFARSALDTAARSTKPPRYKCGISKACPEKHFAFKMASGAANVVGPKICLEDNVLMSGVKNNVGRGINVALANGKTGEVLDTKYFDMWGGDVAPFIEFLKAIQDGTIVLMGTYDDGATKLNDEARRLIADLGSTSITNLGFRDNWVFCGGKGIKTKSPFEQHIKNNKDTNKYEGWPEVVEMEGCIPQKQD
UniProt Q9Y5Y0: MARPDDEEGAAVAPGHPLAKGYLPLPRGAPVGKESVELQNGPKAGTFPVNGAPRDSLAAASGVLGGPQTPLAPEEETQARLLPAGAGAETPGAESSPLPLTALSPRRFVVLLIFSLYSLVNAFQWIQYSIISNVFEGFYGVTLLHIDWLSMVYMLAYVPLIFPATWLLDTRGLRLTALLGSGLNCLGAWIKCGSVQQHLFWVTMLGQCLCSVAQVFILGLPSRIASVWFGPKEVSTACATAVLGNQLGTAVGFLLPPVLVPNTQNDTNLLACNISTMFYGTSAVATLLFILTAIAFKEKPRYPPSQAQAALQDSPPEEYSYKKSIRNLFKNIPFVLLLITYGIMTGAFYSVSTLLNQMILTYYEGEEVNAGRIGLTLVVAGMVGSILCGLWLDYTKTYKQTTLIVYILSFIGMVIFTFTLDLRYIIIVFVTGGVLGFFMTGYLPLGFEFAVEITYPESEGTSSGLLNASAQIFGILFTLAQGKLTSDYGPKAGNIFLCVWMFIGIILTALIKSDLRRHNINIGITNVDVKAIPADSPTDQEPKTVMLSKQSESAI
UniProt Q9NWM8: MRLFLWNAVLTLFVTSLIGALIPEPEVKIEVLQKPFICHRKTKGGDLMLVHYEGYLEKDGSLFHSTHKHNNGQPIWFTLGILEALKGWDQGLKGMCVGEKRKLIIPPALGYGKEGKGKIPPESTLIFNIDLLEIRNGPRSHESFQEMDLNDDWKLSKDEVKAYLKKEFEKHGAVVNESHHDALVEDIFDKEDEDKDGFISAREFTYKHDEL
UniProt Q96HJ9: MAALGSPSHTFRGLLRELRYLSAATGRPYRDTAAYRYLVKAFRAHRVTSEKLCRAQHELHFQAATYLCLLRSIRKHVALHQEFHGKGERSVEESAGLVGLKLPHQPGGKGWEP
UniProt Q5HYJ3: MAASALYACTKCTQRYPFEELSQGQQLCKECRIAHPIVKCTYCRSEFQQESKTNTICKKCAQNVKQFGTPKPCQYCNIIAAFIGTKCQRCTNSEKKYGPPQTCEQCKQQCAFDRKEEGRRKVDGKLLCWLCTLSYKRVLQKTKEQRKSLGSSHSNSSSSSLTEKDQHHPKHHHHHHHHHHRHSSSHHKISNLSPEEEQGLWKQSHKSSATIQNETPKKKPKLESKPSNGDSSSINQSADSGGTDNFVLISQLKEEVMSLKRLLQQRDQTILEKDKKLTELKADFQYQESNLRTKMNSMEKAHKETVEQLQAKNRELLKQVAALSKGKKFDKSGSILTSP
UniProt Q9NXK8: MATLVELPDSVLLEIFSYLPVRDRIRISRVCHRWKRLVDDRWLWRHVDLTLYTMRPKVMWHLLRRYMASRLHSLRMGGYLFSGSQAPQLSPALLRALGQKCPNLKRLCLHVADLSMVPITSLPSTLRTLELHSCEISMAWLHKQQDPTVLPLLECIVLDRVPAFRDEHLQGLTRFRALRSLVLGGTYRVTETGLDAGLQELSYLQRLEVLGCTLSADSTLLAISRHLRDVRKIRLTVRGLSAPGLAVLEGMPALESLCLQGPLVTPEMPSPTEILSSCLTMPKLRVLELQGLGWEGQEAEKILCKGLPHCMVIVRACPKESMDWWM

Key:
Assay in all cases: log2 fold change, soluble protein after heating vs DMSO (PISA); higher = thermal stabilisation; K562 cells, 10 uM, 30 min; active = over 0.2 and 3.5 SD of the protein, either way, in both replicates (recomputed)
[1] = compound: CC1=C(C=C(C=C1)NC(=O)C2=CC(=CC=C2)C(C)(C)C#N)NC3=CC4=C(C=C3)N=CN(C4=O)C
Method in brief: (§1)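 Thermal stability values are relative to control samples and come from duplicates. They are expressed as log2 fold changes. For measurement, K562 cells (2×10^6 cells/mL) received 10 μM compound for 30 min, and aliquots were heated for 3 min over 48°C-58°C, pooled, and extracted at 4°C in PBS with 0.5% NP-40. Soluble protein, the supernatant after 21,000xg for 90 min, was quantified by TMTpro 16plex LC-MS/MS with equalised channel sums.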

[2] = compound: CC1=C(C=C(C=C1)NC(=O)C2=CC(=CC=C2)N(C)C)NC(=O)C3=CC=C(C=C3)O
Method in brief: as §1

[3] = compound: CC1=CC=C(C=C1)SC2=C3C=C(SC3=CN=C2)C(=O)N
Method in brief: as §1

[4] = compound: CC1=NC(=CC=C1)C2=C(N=C(N2)C(C)(C)C)C3=CC4=NC=CN=C4C=C3
Method in brief: as §1

Nexturastat A = compound: CCCCN(Cc1ccc(C(=O)NO)cc1)C(=O)Nc1ccccc1 [Nexturastat A]
Method in brief: as §1

vemurafenib = compound: CCCS(=O)(=O)Nc1ccc(F)c(C(=O)c2c[nH]c3ncc(-c4ccc(Cl)cc4)cc23)c1F [vemurafenib]
Method in brief: as §1

[5] = compound: CCCS(=O)(=O)Nc1ccc(F)c(C(=O)c2c[nH]c3ncc(Cl)cc23)c1F
Method in brief: as §1

[6] = compound: CCCc1cc(C)[nH]c(=O)c1CNC(=O)c1cc(-c2ccnc(N3CCN(C)CC3)c2)cc2c1cnn2C(C)C
Method in brief: as §1

givinostat = compound: CCN(CC)Cc1ccc2cc(COC(=O)Nc3ccc(C(=O)NO)cc3)ccc2c1 [givinostat]
Method in brief: as §1

barasertib = compound: CCN(CCCOc1ccc2c(Nc3cc(CC(=O)Nc4cccc(F)c4)[nH]n3)ncnc2c1)CCOP(=O)(O)O [barasertib]
Method in brief: as §1

Measured: log2 fold change

FANCD2 isoform 1 (UniProt Q9BXW9)
inactive: [1] 0.003 | [2] -0.007 | [3] 0.027 | [4] -0.035 | Nexturastat A -0.09 | vemurafenib 0.033 | [5] 0.099 | [6] -0.031 | givinostat 0.017 | barasertib 0.043

FAM53C (UniProt Q9NYF3)
inactive: [1] -0.054 | [2] -0.075 | [3] 0.01 | [5] -0.025

FAM83A (UniProt Q86UY5)
inactive: [1] -0.042 | [2] -0.049 | [3] 0.082 | Nexturastat A 0.047 | vemurafenib -0.005 | [5] -0.037 | [6] 0.13 | givinostat 0.214

FASTKD2 (UniProt Q9NYY8)
inactive: [1] 0.005 | [2] -0.007 | [3] 0.028 | [4] -0.001 | Nexturastat A -0.022 | vemurafenib 0.003 | [5] 0.067 | [6] -0.05 | givinostat 0.014 | barasertib 0.036

FAM210B (UniProt Q96KR6)
inactive: [1] 0.042 | [2] -0.033 | [4] 0.029 | Nexturastat A 0.067 | vemurafenib 0.034 | givinostat 0.013 | barasertib 0.002

2 consecutive entries already listed, quoted:
FANCD2 isoform 1 (UniProt Q9BXW9)
inactive: [1] 0.003 | [2] -0.007 | [3] 0.027 | [4] -0.035 | Nexturastat A -0.09 | vemurafenib 0.033 | [5] 0.099 | [6] -0.031 | givinostat 0.017 | barasertib 0.043

FAM53C (UniProt Q9NYF3)
inactive: [1] -0.054 | [2] -0.075 | [3] 0.01 | [5] -0.025

(listing goes on)

FLOT2 (UniProt Q14254)
inactive: [1] -0.031 | [2] -0.12 | [3] -0.047 | [4] -0.08 | Nexturastat A 0.324 | vemurafenib 0.02 | [5] -0.057 | [6] 0.159 | givinostat 0.059 | barasertib 0.047

FKBP1A (UniProt P62942)
inactive: [1] 0.026 | [2] -0.029 | [3] 0.118 | [4] -0.022 | Nexturastat A -0.023 | vemurafenib 0.029 | [5] 0.127 | [6] -0.04 | givinostat 0.067 | barasertib -0.064

FAM32A (UniProt Q9Y421)
inactive: [1] -0.054 | [2] 0.047 | [3] 0.011 | [4] -0.017 | Nexturastat A 0.033 | vemurafenib -0.115 | [5] -0.053 | [6] -0.032 | givinostat -0.057 | barasertib -0.086

FEM1B (UniProt Q9UK73)
inactive: [1] -0.036 | [2] 0.023 | [3] 0.019 | [4] -0.039 | Nexturastat A 0.102 | vemurafenib -0.004 | [5] -0.012 | [6] -0.025 | givinostat 0.072 | barasertib 0.049

FAM234B (UniProt A2RU67)
inactive: [1] -0.017 | [2] -0.085 | [3] -0.018 | [4] -0.013 | vemurafenib 0.082 | [5] -0.026 | givinostat 0.021 | barasertib -0.091

FAM50A (UniProt Q14320)
inactive: [1] 0.041 | [2] -0.059 | [3] 0.019 | [4] 0.057 | Nexturastat A -0.069 | vemurafenib 0.049 | [5] 0.035 | [6] 0.014 | givinostat 0.102 | barasertib 0.026

FAM3C (UniProt Q92520)
inactive: [1] 0.035 | [2] 0.009 | [3] 0.025 | [4] 0.007 | Nexturastat A -0.052 | vemurafenib 0 | [5] 0.03 | [6] -0.007 | givinostat -0.011 | barasertib 0.034

FNBP1L (UniProt Q5T0N5)
inactive: [1] -0.024 | [2] 0.037 | [3] -0.002 | [4] 0.033 | vemurafenib 0.065 | [5] -0.014 | [6] 0.036 | givinostat 0.202 | barasertib 0.012

FLII isoform 2 (UniProt Q13045)
inactive: [1] 0.068 | [2] -0.002 | [3] 0.171 | Nexturastat A -0.075 | [5] 0.011

FAM91A1 (UniProt Q658Y4)
inactive: [1] 0.035 | [2] 0.034 | [3] -0.036 | [4] -0.048 | vemurafenib -0.055 | [5] 0.051 | [6] 0.07 | givinostat 0.024 | barasertib 0.06
active: Nexturastat A 0.286

FKBP15 (UniProt Q5T1M5)
inactive: [1] -0.075 | [2] -0.016 | [3] -0.02 | [4] -0.004 | Nexturastat A 0.022 | vemurafenib -0.019 | [5] 0.029 | [6] 0.057 | givinostat 0.094 | barasertib 0.081

FARS2 (UniProt O95363)
inactive: [1] 0.012 | [2] -0.015 | [3] -0.032 | [4] 0.078 | Nexturastat A 0.044 | vemurafenib 0.032 | [5] 0.01 | [6] -0.087 | givinostat -0.019 | barasertib 0.035

FLVCR1 (UniProt Q9Y5Y0)
inactive: [1] 0.086 | [2] 0.003 | [3] -0.004 | [4] -0.042 | Nexturastat A -0.064 | vemurafenib -0.019 | [5] 0.002 | [6] -0.033 | givinostat -0.017 | barasertib 0.007

FLCN (UniProt Q8NFG4)
inactive: [1] -0.106 | [2] 0.097 | [4] -0.031 | Nexturastat A 0.008 | vemurafenib 0.076 | [6] -0.065 | givinostat -0.035

FCHSD1 (UniProt Q86WN1)
inactive: [1] -0.173 | [2] 0.078 | [3] -0.119 | [4] -0.072 | Nexturastat A -0.038 | [5] 0.088 | givinostat 0.001

FKBP14 (UniProt Q9NWM8)
inactive: [1] 0.007 | [2] 0.029 | [3] 0.046 | Nexturastat A 0.09 | vemurafenib -0.014 | [5] -0.009 | [6] 0.018 | givinostat 0.155 | barasertib -0.006

FEZ2 isoform 2 (UniProt Q9UHY8)
inactive: [1] 0.002 | [2] 0.006 | [3] -0.148 | [4] -0.092 | vemurafenib -0.036 | [5] 0 | [6] 0.015 | barasertib -0.082

FMC1 (UniProt Q96HJ9)
inactive: [1] -0.036 | [2] -0.029 | [3] 0.027 | [4] 0.004 | Nexturastat A -0.038 | vemurafenib -0.065 | [5] 0.014 | [6] -0.074 | givinostat -0.051 | barasertib 0.022

FAM76B (UniProt Q5HYJ3)
inactive: [1] -0.044 | [2] 0.057 | [3] -0.004 | [4] 0.023 | Nexturastat A 0.018 | vemurafenib 0.002 | [5] -0.017 | [6] 0.041 | givinostat 0.066 | barasertib -0.028

FMR1 (UniProt Q06787)
inactive: [1] -0.023 | [2] 0.036 | [3] -0.066 | [4] -0.163 | [5] -0.094 | [6] -0.068 | givinostat -0.203

FERMT2 isoform 3 (UniProt Q96AC1)
inactive: [1] -0.15 | [2] 0.046 | [3] 0.098 | [4] -0.001 | Nexturastat A -0.218 | [5] -0.072 | [6] -0.131 | givinostat -0.283 | barasertib 0.05

FBXO38 (UniProt Q6PIJ6)
inactive: [1] 0.146 | [2] 0.077 | [3] -0.033 | [4] 0.082 | Nexturastat A -0.111 | vemurafenib 0.059 | [5] -0.17 | givinostat 0.007 | barasertib -0.03

FBXL12 (UniProt Q9NXK8)
inactive: [1] 0 | [2] -0.104 | [3] -0.003 | [4] -0.208 | Nexturastat A -0.005 | vemurafenib 0.054 | [5] 0.017 | [6] -0.059 | givinostat -0.004 | barasertib 0.037
